Reference: patent publication US20080125405A1, “Composition for treating or preventing olfactory disorder” (Samsung Life Public Welfare Foundation Samsung Medical …, priority 2006, published 2008)
Read-outs that look alike come from different tables or passages of the source.

System: olfactory receptor cells
Details: grade 0 to 4, higher = more regeneration, drug 10 mg/kg oral daily

## CC(C)c1c(C(=O)Nc2ccccc2)c(-c2ccccc2)c(-c2ccc(F)cc2)n1CC[C@@H](O)C[C@@H](O)CC(=O)O [atorvastatin]
Four days after 3-methylindole
  average PGP 9.5 immunostaining grade: 0.64±0.51
Fourteen days after 3-methylindole
  average PGP 9.5 immunostaining grade: 2.42±1.38
Seven days after 3-methylindole
  average PGP 9.5 immunostaining grade: 2.46±1.12
Twenty eight days after 3-methylindole
  average PGP 9.5 immunostaining grade: 3.7±0.48
